The results in this text go back to publication PMC8610252.

By UniProt entry, the sequences of proteins in these tests, tags left out. Residues count along the entry.
UniProt G3XD89, residues 3-670: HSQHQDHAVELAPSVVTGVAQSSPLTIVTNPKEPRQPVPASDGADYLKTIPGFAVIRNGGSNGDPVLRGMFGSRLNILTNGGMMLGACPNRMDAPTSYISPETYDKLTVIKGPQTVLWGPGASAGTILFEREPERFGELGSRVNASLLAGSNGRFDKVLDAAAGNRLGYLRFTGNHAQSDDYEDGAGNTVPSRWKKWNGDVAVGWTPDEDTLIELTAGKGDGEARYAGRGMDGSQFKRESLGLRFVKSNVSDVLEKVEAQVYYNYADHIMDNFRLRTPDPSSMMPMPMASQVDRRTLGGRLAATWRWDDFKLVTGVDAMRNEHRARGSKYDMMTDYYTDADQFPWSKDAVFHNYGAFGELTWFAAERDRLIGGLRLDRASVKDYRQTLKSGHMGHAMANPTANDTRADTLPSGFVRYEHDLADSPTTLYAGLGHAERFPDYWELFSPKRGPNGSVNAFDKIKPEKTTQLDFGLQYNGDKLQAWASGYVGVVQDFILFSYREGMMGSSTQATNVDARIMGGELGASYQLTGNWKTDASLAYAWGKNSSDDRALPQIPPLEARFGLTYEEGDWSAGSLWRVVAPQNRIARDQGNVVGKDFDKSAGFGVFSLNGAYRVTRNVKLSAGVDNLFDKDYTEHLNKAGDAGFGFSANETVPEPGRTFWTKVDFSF
UniProt P00282, residues 21-148: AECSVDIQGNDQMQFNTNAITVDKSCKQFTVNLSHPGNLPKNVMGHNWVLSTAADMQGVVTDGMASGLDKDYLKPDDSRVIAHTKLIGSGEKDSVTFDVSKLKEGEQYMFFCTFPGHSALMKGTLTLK

This experiment concerns the target Pseudomonas aeruginosa OprC (PA3790), wild type (P. aeruginosa PAO1) (UniProt G3XD89). Description: SEC; OM-purified, functional OprC with azurin; no conditions given (told only in the discussion, no figure).

No constants are given. Whether binding was seen depends on the method and setting.

azurin (from UniProt P00282 21-148): the binding entry was “no binding”.
